Results deposited as PubChem BioAssay AID1259254 (NCATS, 2017)

- Purpose: 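Finding genes that stop cells copying their DNA twice in one cycle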 (primary screen)
- Cell system: human HCT116 colorectal cancer cells
- Reagent: single siRNA against human genes
- Timing: 3 days
- Measured: 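Imaged Hoechst DNA stain sorts each cell into a cycle phase by DNA amount; per plate, G2 fraction set to 0% for non-targeting and 100% for GMNN siRNA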
- Scale: G2 robust z-score and G2 cells, % of GMNN control: higher = more G2 cells, more excess DNA replication; raw share of cells in G2: higher = larger share of cells with G2 DNA content
- Active means: 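An siRNA counts as active if its G2 robust z-score lies at least 5 MADs above the screen median; here such calls match roughly 38% of GMNN control or more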
In all, the deposit lists about 59,000 reagents; shown is a part drawn at random. Over the whole deposit, about 1,550 (2.6%) are marked active. 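G2 share is only a proxy for re-replication; each gene was hit by three separate siRNAs, and active genes were retested.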 Raw values are not corrected between plates. A number with no mark means an inactive call. Not stated in the record: the amount of reagent.

gene knocked down	PubChem SID	G2 robust z-score	G2 cells, % of GMNN control	raw share of cells in G2 (%)
PFKFB2	SID160714159	0.11	3.74	6.01
PFKFB2	SID160714160	4.62	35.5	15
PFKFB2	SID160714161	0.746	8.22	5.97
NUP188	SID160736427	-1.27	-5.97	2.17
NUP188	SID160736428	0.223	4.53	5.9
NUP188	SID160736429	-0.477	-0.386	3.16
RAB43	SID160764150	2.07	17.5	10.7
RAB43	SID160764151	0.291	5.02	6.92
RAB43	SID160764152	0.043	3.27	7.32
GCDH	SID160769842	4.28	33.1	17.3
GCDH	SID160769851	2.18	18.3	12.2
GCDH	SID160769862	2.62	21.4	11.3

Continued (4 carried over from the part before).
gene knocked down	PubChem SID	G2 robust z-score	G2 cells, % of GMNN control	raw share of cells in G2 (%)
RAB43	SID160764152	0.043	3.27	7.32
GCDH	SID160769842	4.28	33.1	17.3
GCDH	SID160769851	2.18	18.3	12.2
GCDH	SID160769862	2.62	21.4	11.3
DEFB4A	SID160753784	-0.951	-3.73	3.55
DEFB4A	SID160753793	6.52 (active)	48.8	22
DEFB4A	SID160753804	-0.57	-1.04	3.11
ZNF749	SID160765910	-0.379	0.3	3.19
ZNF749	SID160765911	-0.548	-0.89	2.86
ZNF749	SID160765913	-0.548	-0.889	3.21
ALPG	SID160716907	12.1 (active)	88	33.4
ALPG	SID160716917	-0.799	-2.65	3.5
ALPG	SID160716927	0.0726	3.48	4.54
UBD	SID160728677	-0.784	-2.55	4.18
UBD	SID160728678	0.0458	3.29	5.32
UBD	SID160728679	0.311	5.16	5.28
TMEM179B	SID160733154	3.94	30.7	16.5
TMEM179B	SID160765264	0.62	7.33	6.5
TMEM179B	SID160765265	4.86	37.2	19.5
ATP6V1E1	SID160722166	-0.347	0.525	5.26
ATP6V1E1	SID160722176	0.616	7.3	7.2
ATP6V1E1	SID160722187	-0.503	-0.57	3.78
